Sequences of proteins named here, by UniProt entry; tags and fusion partners are left off.
UniProt Q5SQI0: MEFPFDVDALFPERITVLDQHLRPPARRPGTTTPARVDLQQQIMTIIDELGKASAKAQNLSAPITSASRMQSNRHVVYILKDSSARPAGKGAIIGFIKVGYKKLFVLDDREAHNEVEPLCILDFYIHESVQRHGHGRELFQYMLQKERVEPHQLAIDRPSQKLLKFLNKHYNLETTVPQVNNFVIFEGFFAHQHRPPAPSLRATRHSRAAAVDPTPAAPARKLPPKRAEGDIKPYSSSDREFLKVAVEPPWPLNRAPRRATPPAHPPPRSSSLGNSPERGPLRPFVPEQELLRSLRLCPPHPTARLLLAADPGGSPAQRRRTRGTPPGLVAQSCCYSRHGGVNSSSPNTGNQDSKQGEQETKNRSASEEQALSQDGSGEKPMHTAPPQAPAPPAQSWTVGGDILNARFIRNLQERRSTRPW
UniProt Q9Y490: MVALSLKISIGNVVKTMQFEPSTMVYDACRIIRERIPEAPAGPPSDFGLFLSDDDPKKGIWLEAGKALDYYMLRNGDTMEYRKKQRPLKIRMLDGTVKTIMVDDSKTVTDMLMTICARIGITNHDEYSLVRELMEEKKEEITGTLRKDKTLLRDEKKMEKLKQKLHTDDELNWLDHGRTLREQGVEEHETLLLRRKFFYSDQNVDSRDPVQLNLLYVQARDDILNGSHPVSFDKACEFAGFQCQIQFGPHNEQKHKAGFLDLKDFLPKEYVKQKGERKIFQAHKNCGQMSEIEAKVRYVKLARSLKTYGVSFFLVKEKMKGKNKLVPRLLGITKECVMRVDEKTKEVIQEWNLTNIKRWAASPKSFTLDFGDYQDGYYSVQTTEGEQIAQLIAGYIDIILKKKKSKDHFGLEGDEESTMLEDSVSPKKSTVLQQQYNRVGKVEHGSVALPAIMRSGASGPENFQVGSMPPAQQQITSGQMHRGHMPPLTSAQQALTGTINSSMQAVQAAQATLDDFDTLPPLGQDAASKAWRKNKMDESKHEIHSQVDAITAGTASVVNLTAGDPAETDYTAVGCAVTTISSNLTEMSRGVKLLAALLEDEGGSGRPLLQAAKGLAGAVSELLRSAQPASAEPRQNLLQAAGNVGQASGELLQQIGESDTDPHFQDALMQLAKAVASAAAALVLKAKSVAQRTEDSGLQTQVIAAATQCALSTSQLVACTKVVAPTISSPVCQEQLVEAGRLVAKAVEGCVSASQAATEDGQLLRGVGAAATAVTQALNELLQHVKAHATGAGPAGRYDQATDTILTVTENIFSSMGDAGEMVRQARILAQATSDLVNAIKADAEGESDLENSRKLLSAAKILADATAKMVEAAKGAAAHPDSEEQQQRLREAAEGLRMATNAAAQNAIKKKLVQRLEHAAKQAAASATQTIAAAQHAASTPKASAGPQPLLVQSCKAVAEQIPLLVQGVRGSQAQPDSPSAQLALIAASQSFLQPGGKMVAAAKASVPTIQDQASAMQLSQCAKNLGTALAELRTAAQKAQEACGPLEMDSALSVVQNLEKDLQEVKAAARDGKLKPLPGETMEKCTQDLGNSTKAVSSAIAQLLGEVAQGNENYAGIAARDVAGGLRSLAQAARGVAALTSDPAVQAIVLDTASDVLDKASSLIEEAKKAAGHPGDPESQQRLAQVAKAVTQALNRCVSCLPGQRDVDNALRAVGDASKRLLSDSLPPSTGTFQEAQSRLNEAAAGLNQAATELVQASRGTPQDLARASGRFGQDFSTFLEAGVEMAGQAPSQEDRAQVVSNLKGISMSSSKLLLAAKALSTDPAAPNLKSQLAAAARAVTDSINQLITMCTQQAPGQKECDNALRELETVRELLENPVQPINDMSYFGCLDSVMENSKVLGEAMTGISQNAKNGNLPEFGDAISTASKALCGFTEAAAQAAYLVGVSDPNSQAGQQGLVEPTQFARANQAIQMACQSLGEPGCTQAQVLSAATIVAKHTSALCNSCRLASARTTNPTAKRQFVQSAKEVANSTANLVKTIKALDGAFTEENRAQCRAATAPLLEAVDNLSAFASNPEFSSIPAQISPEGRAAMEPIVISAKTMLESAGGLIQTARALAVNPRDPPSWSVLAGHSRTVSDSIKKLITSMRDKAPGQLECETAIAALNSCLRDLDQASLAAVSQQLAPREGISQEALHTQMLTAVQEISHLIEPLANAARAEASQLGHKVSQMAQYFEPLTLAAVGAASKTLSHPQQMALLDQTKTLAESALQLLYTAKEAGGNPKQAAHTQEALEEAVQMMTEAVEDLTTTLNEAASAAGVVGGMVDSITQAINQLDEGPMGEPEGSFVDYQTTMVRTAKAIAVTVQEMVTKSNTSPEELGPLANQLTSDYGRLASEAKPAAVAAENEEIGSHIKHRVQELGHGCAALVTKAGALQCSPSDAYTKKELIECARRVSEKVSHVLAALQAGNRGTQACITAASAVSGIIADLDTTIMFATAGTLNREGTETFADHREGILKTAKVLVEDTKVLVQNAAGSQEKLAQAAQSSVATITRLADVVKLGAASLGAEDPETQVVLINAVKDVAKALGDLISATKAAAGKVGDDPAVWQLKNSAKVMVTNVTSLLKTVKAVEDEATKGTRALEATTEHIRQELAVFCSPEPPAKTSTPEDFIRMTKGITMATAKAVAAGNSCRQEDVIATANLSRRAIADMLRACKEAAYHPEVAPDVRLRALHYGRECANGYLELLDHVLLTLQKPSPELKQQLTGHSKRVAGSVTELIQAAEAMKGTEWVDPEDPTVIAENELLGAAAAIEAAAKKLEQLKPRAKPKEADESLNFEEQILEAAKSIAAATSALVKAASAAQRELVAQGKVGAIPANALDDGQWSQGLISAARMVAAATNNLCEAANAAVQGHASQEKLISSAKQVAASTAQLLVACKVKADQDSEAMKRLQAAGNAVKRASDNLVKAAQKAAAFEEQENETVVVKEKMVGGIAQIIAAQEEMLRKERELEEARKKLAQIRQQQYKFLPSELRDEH

According to publication doi:10.1101/2020.07.22.205203:

Target: GFP-αTAT1 (alpha-tubulin acetyltransferase 1), expressed in HEK293 cells (UniProt Q5SQI0)
Test: affinity purification with mass spectrometry

- binding: binds
Substance: Talin-1 (endogenous in HEK cells) (from UniProt Q9Y490 1-2541)

Results are given in words; binding and its absence hold for the method and conditions named. Binding seen in cells or lysates may run through a third protein. A yes stands for co-enrichment or nearness to the bait. Other partners may have been found.
